Results are given in words; binding and its absence hold for the method and conditions named. Binding seen in cells or lysates may run through a third protein. A yes stands for co-enrichment or nearness to the bait. Other partners may have been found.
B1: TIMELESS (TIM) (protein, UniProt P49021 1-1398)
chain: MDWLLATPQLYSAFSSLGCLEGDTYVVNPNALAILEEINYKLTYEDQTLRTFRRAIGFGQNVRSDLIPLLENAKDDAVLESVIRILVNLTVPVECLFSVDVMYRTDVGRHTIFELNKLLYTSKEAFTEARSTKSVVEYMKHILESDPKLSPHKCDQINNCLLLLRNILHIPETHAHCVMPMMQSMPHGISMQNTILWNLFIQSIDKLLLYLMTCPQRAFWGVTMVQLIALIYKDQHVSTLQKLLSLWFEASLSESSEDNESNTSPPKQGSGDSSPMLTSDPTSDSSDNGSNGRGMGGGMREGTAATLQEVSRKGQEYQNAMARVPADKPDGSEEASDMTGNDSEQPGSPEQSQPAGESMDDGDYEDQRHRQLNEHGEEDEDEDEVEEEEYLQLGPASEPLNLTQQPADKVNNTTNPTSSAPQGCLGNEPFKPPPPLPVRASTSAHAQMQKFNESSYASHVSAVKLGQKSPHAGQLQLTKGKCCPQKRECPSSQSELSDCGYGTQVENQESISTSSNDDDGPQGKPQHQKPPCNTKPRNKPRTIMSPMDKKELRRKKLVKRSKSSLINMKGLVQHTPTDDDISNLLKEFTVDFLLKGYSYLVEELHMQLLSNAKVPIDTSHFFWLVTYFLKFAAQLELDMEHIDTILTYDVLSYLTYEGVSLCEQLELNARQEGSDLKPYLRRMHLVVTAIREFLQAIDTYNKVTHLNEDDKAHLRQLQLQISEMSDLRCLFVLLLRRFNPSIHSKQYLQDLVVTNHILLLILDSSAKLGGCQTIRLSEHITQFATLEVMHYYGILLEDFNNNGEFVNDCIFTMMHHIGGDLGQIGVLFQPIILKTYSRIWEADYELCDDWSDLIEYVIHKFMNTPPKSPLTIPTTSLTEMTKEHNQEHTVCSWSQEEMDTLYWYYVQSKKNNDIVGKIVKLFSNNGNKLKTRISIIQQLLQQDIITLLEYDDLMKFEDAEYQRTLLTTPTSATTESGIEIKECAYGKPSDDVQILLDLIIKENKAQHLLWLQRILIECCFVKLTLRSGLKVPEGDHIMEPVAYHCICKQKSIPVVQWNNEQSTTMLYQPFVLLLHKLGIQLPADAGSIFARIPDYWTPETMYGLAKKLGPLDKLNLKFDASELEDATASSPSRYHHTGPRNSLSSVSSLDVDLGDTEELALIPEVDAAVEKAHAMASTPSPSEIFAVPKTKHCNSIIRYTPDPTPPVPNWLQLVMRSKCNHRTGPSGDPSDCIGSSSTTVDDEGFGKSISAATSQAASTSMSTVNPTTTLSLNMLNTFMGSHNENSSSSGCGGTVSSLSMVALMSTGAAGGGGNTSGLEMDVDASMKSSFERLEVNGSHFSRANNLDQEYSAMVASVYEKEKELNSDNVSLASDLTRMYVSDEDDRLERTEIRVPHYH

Protein sequences, listed by entry. Tags and fused reporters are not part of them.
UniProt O76324: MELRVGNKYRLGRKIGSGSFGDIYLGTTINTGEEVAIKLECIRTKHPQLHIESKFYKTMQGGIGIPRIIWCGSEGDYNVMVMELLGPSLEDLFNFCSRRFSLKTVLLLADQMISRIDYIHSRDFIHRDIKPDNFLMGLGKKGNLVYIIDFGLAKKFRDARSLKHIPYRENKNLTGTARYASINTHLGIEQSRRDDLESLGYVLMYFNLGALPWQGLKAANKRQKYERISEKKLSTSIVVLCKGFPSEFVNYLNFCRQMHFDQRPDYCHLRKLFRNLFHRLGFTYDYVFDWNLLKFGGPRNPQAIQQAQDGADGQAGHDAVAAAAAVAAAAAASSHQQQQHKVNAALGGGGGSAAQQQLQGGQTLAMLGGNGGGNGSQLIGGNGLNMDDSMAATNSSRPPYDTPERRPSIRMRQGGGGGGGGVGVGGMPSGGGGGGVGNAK
UniProt Q9V3G1: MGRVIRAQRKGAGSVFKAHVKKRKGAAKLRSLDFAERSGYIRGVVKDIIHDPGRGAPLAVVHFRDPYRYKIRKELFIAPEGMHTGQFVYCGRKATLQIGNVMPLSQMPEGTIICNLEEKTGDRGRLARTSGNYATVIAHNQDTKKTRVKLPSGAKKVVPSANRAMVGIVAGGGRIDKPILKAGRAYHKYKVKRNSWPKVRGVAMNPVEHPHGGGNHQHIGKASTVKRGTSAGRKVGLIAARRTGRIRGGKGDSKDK

The molecules below were run against Drosophila PERIOD (dPER), N-terminal 3xFLAG-tagged, wild type (D. melanogaster) (UniProt P07663) (assay: affinity purification with mass spectrometry).

| Molecule | binding |
| --- | --- |
| DOUBLETIME (DBT) (from UniProt O76324 1-440) (enzyme) | binds |
| 60S ribosomal protein L8 (RpL8, FBgn0261602) (from UniProt Q9V3G1 1-256) | binds |
| B1 | binds |

Reference: article doi:10.1101/2021.11.20.469315
